This is one part of the list.
The sequences below were run against OsWRKY34 (Oryza sativa, UniProt Q0JBA9 1-250) (assay: protein-binding microarray (RPBM); PBS, 2% BSA, 51.3 ng/ul salmon testes DNA, 50 uM zinc acetate, 200 nM TF, 25 C, 1 h; high values mean tight binding). Settings: protein: recombinant; tags: N-terminal polyhistidine and DsRed monomer fusion (pET32a); label: CyDye5-dUTP incorporated in the synthesized complementary strand; 3' TTTTT single-stranded linker to array surface; dsDNA, one strand shown.
In short: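 An Axon 4000B scanner gave the binding signal as per-feature fluorescence intensity in arbitrary units. This followed washing of a custom Agilent array that had been incubated for 1 h at 25 °C with 200 nM protein in PBS, 2% BSA, salmon testes DNA and 50 µM zinc acetate. The proteins were transcription factors fused at the N-terminus to polyhistidine and DsRed, expressed in E. coli BL21-CodonPlus and purified on Ni–NTA.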

The chains behind the UniProt entries cited, without tags or fusion partners.
UniProt Q0JBA9, entry or part of it: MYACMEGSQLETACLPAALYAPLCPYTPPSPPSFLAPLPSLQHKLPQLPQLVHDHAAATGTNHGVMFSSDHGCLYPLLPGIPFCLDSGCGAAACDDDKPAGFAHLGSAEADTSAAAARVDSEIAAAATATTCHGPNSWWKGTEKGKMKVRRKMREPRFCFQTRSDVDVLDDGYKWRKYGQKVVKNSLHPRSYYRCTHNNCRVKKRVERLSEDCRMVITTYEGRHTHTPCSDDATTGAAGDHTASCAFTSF

Row | Sequence | binding signal
1 | AATTTTCTCAGTTGTGCATTTCATCGAACACCTTCCTATTCGGAGTCACCTAGTGCAG | 10400 fluorescence intensity (a.u.)
2 | TTGTTGACCCATTTTTCCACTCGTCACCGTGTTTCTGCTGCGGAGTCACCTAGTGCAG | 12700 fluorescence intensity (a.u.)
3 | CTAACCTGCCCGAGTTTGCCTGATTGCTTCTCTGTTCCCACGGAGTCACCTAGTGCAG | 8930 fluorescence intensity (a.u.)
4 | ACCTCTAGGGAAGATAGATAGGAGGGGATGGGATATATTGCGGAGTCACCTAGTGCAG | 8110 fluorescence intensity (a.u.)
5 | GGGGAGGGAGATCCATCTAACAGTTCTTTCTTTTTTTTTCCGGAGTCACCTAGTGCAG | 10300 fluorescence intensity (a.u.)
6 | CATTTCATTTCCTACCGTTAATTTCATACTACTTGCGTCCCGGAGTCACCTAGTGCAG | 10600 fluorescence intensity (a.u.)
7 | GGGTAGATTCATCAACTCACTCTTACACCTACATTACTCACGGAGTCACCTAGTGCAG | 11100 fluorescence intensity (a.u.)
8 | TTCTCCACTATCACGACCGTTTGACCAAATCTAATGAGGTCGGAGTCACCTAGTGCAG | 8180 fluorescence intensity (a.u.)
9 | CCTTTGCTACCTCACAGTTCCTTTTTTTTTTGCACGCGCGCGGAGTCACCTAGTGCAG | 8490 fluorescence intensity (a.u.)
10 | CATCATACACTTAGCCATCATCCTATAATGTTCACCGATCCGGAGTCACCTAGTGCAG | 8270 fluorescence intensity (a.u.)
11 | CGATCGTCTCCACCTTTCTTGCTTGTGCCACCAGCTTTATCGGAGTCACCTAGTGCAG | 9070 fluorescence intensity (a.u.)
12 | ATCCATTTATGTCTGTGTATGTTTGGTAGTACTACTTTTGCGGAGTCACCTAGTGCAG | 9080 fluorescence intensity (a.u.)
13 | CTTCTTCTTGTTGTTCCACTCTTATTGTTCATCATCCTCCCGGAGTCACCTAGTGCAG | 9820 fluorescence intensity (a.u.)
14 | GGTTGCGTTGTTGCGGGCGTTGTTGCGGGCGGGCGGTCAGCGGAGTCACCTAGTGCAG | 16600 fluorescence intensity (a.u.)
15 | TCTTGCCAACGTTTGACTGTTCGTTTTATATGAAAATTTTCGGAGTCACCTAGTGCAG | 12400 fluorescence intensity (a.u.)
16 | TTAATTGTTTGCCGTCTGCTAATCTTGATTCTTGCACAAACGGAGTCACCTAGTGCAG | 8120 fluorescence intensity (a.u.)
17 | CACCGCCGCTGCCACCGCACGCACGCCCGCCACTTCGCTGCGGAGTCACCTAGTGCAG | 9290 fluorescence intensity (a.u.)
18 | TGAGGGACCTTTTGCCATTTTCTTTCTTTTGGTGGGACCCCGGAGTCACCTAGTGCAG | 9750 fluorescence intensity (a.u.)
19 | GTCCACCCGTTTCTTGCATGCCGCCTAAATAATTATGAAACGGAGTCACCTAGTGCAG | 11700 fluorescence intensity (a.u.)
20 | GGCCCACCGTATTCGCTGAACCCATCACTTCCCGTACACCCGGAGTCACCTAGTGCAG | 13400 fluorescence intensity (a.u.)
21 | GCATATGTTTGACCGTTCATCTTATTTAAAAACTTTTATGCGGAGTCACCTAGTGCAG | 8950 fluorescence intensity (a.u.)
22 | CACACTGTGCACGCCATTCTTATCTTGTCTAGCTTCATCTCGGAGTCACCTAGTGCAG | 16600 fluorescence intensity (a.u.)
23 | CCCAGCTGCGTCGCCATTCTTCACCCACCATCCCAGTGCCCGGAGTCACCTAGTGCAG | 10300 fluorescence intensity (a.u.)
24 | GCCATTCCCCACCACCACCTGTCGACGGCGTACGACTACTCGGAGTCACCTAGTGCAG | 8320 fluorescence intensity (a.u.)
25 | TAGGTGTGTGGCTGCTTTTGTAACTTGTCTCTGAAAACGTCGGAGTCACCTAGTGCAG | 9670 fluorescence intensity (a.u.)
26 | CTGGAAGCACACACTCTTCTCTCTTCCCCGTATCATCCGGCGGAGTCACCTAGTGCAG | 8260 fluorescence intensity (a.u.)
27 | GCTCTTGGCGTCGTTGACATCCATTGCTAAGTCCCACGCTCGGAGTCACCTAGTGCAG | 10700 fluorescence intensity (a.u.)

Row | Sequence | binding signal
28 | ATCTCTAATTCTATTGGGTGCATGTATTGTACTATTTATTCGGAGTCACCTAGTGCAG | 9280 fluorescence intensity (a.u.)
29 | AATATGTGGGTGATTTGTTGTAATGGAGTATGTGGTGGAGCGGAGTCACCTAGTGCAG | 10000 fluorescence intensity (a.u.)
30 | AGGCACGCACTATTTTGCAATCCAATAGCTTAGATTTTTGCGGAGTCACCTAGTGCAG | 8210 fluorescence intensity (a.u.)
31 | ACCCACCACCATCTCTTCTCTCACTAACACCTCGGGACAACGGAGTCACCTAGTGCAG | 9180 fluorescence intensity (a.u.)
32 | AGAGGGTTGGTGTAGTGGCAGGGGAGTGACGGTGCGCGGTCGGAGTCACCTAGTGCAG | 9010 fluorescence intensity (a.u.)
33 | GTCCATTTAATTTCTAGTTTGTTATTGATTTCTATATAATCGGAGTCACCTAGTGCAG | 8760 fluorescence intensity (a.u.)
34 | TTCTCGTGATCGATCGCTATATCGCTATAACCGCTGCTAACGGAGTCACCTAGTGCAG | 9390 fluorescence intensity (a.u.)
35 | ATTGCCGTCCTCACCGTCGTTCGGCTTTGCCGGCGGCTGCCGGAGTCACCTAGTGCAG | 12100 fluorescence intensity (a.u.)
36 | GGACATTTTATTTGGTCTTTGCTTAGGTTTTTGATTGTTTCGGAGTCACCTAGTGCAG | 10900 fluorescence intensity (a.u.)
37 | CCTCTGGTCACGCATTCTACACAGAATCTCTGGTTTTCCCCGGAGTCACCTAGTGCAG | 9500 fluorescence intensity (a.u.)
38 | GGCCTGGGTAGGGTTGACCTTCTCTACTTCATGTAGGACTCGGAGTCACCTAGTGCAG | 10800 fluorescence intensity (a.u.)
39 | ACCCCATCCAGCATTTCGACCCATCACCATGGCATCAATCCGGAGTCACCTAGTGCAG | 9880 fluorescence intensity (a.u.)
40 | CCTCCACGCCCGCTCTCGGCCTACACCACAGACTCAAATCCGGAGTCACCTAGTGCAG | 8320 fluorescence intensity (a.u.)
41 | CCTAAGTAGCTCGCTAGTGGGGAGAGGGGCGTGGCTGATGCGGAGTCACCTAGTGCAG | 11100 fluorescence intensity (a.u.)
42 | ACTTCTGTGTTTTTCCTCTATGATCATAGCTGAAACCATTCGGAGTCACCTAGTGCAG | 8470 fluorescence intensity (a.u.)
43 | TCTTTAGGTCTCTGCAGTCTACATACATCATTACCGAATTCGGAGTCACCTAGTGCAG | 8780 fluorescence intensity (a.u.)
44 | CGTTACTGCCTGACGTCATCCACCTCTCCTGTTTCCGTTTCGGAGTCACCTAGTGCAG | 8600 fluorescence intensity (a.u.)
45 | CTAGTACTCCGTATATCTCGATCGCAACCTCATGGCGTGACGGAGTCACCTAGTGCAG | 11100 fluorescence intensity (a.u.)
46 | CTAGCCCGTTAACATTACTGTTCATCTCCCTATCCGTCTCCGGAGTCACCTAGTGCAG | 9570 fluorescence intensity (a.u.)
47 | CCATCTATCCCATTCACTGGCGTCCGCCGCCGCCGCTATGCGGAGTCACCTAGTGCAG | 9390 fluorescence intensity (a.u.)
48 | CCCAATTGTTTGTCATGTAATTTGAGTCCACATCATCACACGGAGTCACCTAGTGCAG | 9300 fluorescence intensity (a.u.)
49 | TTCGAGCCATGTGTTTCGAGGTTTTTTTTTTATTTTCTCGCGGAGTCACCTAGTGCAG | 8040 fluorescence intensity (a.u.)
50 | ATGCCTACATCCTCCAAACAAACCAAACCCGTCGACACTTCGGAGTCACCTAGTGCAG | 8570 fluorescence intensity (a.u.)
51 | CTCTCCTCGATCTCTCCTGCAATCCTCATCACACAGCAAACGGAGTCACCTAGTGCAG | 9150 fluorescence intensity (a.u.)
52 | AGGAAATCACAAATCAGATGTTATAATGCCTAGTTTTTACCGGAGTCACCTAGTGCAG | 8110 fluorescence intensity (a.u.)
53 | TCGATCCTCAACATCTCCCTTTTTTTTCTCTTGTCCTTTCCGGAGTCACCTAGTGCAG | 11500 fluorescence intensity (a.u.)
54 | ATCGCAGCCCAATCCTCATTCCTCCACGGGTCCATCCTATCGGAGTCACCTAGTGCAG | 8670 fluorescence intensity (a.u.)

Another view of some results above:

| Row | Sequence | binding signal |
| --- | --- | --- |
| 50 | ATGCCTACATCCTCCAAACAAACCAAACCCGTCGACACTTCGGAGTCACCTAGTGCAG | 8570 fluorescence intensity (a.u.) |
| 51 | CTCTCCTCGATCTCTCCTGCAATCCTCATCACACAGCAAACGGAGTCACCTAGTGCAG | 9150 fluorescence intensity (a.u.) |
| 52 | AGGAAATCACAAATCAGATGTTATAATGCCTAGTTTTTACCGGAGTCACCTAGTGCAG | 8110 fluorescence intensity (a.u.) |
| 53 | TCGATCCTCAACATCTCCCTTTTTTTTCTCTTGTCCTTTCCGGAGTCACCTAGTGCAG | 11500 fluorescence intensity (a.u.) |
